± gives the standard error. Many entries were measured with a wide error.
B1: glmS ribozyme (parent)
chain: AUAAAAGCGCCAGAACUACAGAAAUGUAGUUGACGAGGAGGAGGUUUAUCGAAUUUUCGGCGGAUGCCUCCAAA

Variants of: B1
Test: self-cleavage kobs at 640 uM GlcN6P; higher = faster cleavage; RNA array
Settings: with glucosamine-6-phosphate
In short: (§1)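 Ribozyme variants carrying barcodes were transcribed in situ on sequenced MiSeq chips by E. coli RNA polymerase and tracked at 37 °C with a hybridised Cy3 probe. They were exposed to 40 μM to 10 mM glucosamine-6-phosphate in HEPES/KCl/Mg(OAc)2 buffer. kobs came from exponential decay fits of normalised per-tile medians, and kcat and KM from weighted Michaelis–Menten fits.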

Variant	self-cleavage kobs at 640 uM GlcN6P [s⁻¹]
C8A G37U G38A A53C G60U C67G C68A	2.46e-05 ± 2.4e-05
G9A C11G A14G G62A C70G	0.00139 ± 0.0011
C10A C34U C67G C68G	3.03e-05 ± 1.8e-05
C10A C67U C71G	6.59e-05 ± 3.5e-05
C10A C68G C71U	0.000211 ± 0.00011
C10U A14G C68G	3.92e-05 ± 2.3e-05
C10U A42U G43U U56G G62U C71U	3.66e-05 ± 2.8e-05
C11A A15C U54G	3.04e-05 ± 2.6e-05
C11A C16U A53U	4.31e-05 ± 2.3e-05
C11G C34G G35C G38U C70G	4.33e-05 ± 3.1e-05
C11G C68G	2.78e-05 ± 1.5e-05
C11U A15G G35A C70G C71G	0.00235 ± 0.0017
A12G C61U C67U C68G	2.67e-05 ± 2.7e-05
A12G G51A C70A	2.99e-05 ± 2.8e-05
A12G G62U C70G	4.32e-05 ± 2.3e-05
A12U G13A A53G C70A C71G	2.41e-05 ± 2.1e-05
A12U G13U A53G C71G	3.2e-05 ± 2.4e-05
G13A G29A	2.8e-05 ± 1.8e-05
G13C U45A U46C	3.53e-05 ± 2e-05
G13U A14U G59C C68A	2.46e-05 ± 2.4e-05
G13U A42G	0.000312 ± 0.00021
G13U C58U C67G	3.47e-05 ± 2.6e-05
G13U U45C	2.11e-05 ± 1.9e-05
A14C A36G C68G	6.72e-05 ± 5.1e-05

Variant	self-cleavage kobs at 640 uM GlcN6P [s⁻¹]
A14C C16U G29C G60A C68U	3.4e-05 ± 2.6e-05
A14G C16G A64G U69G	6.85e-05 ± 3.7e-05
A14G U30A G62U U69G	3.44e-05 ± 3.2e-05
A14U C50G	0.000584 ± 0.00032
A14U C50U C67G	3.55e-05 ± 2.4e-05
A14U C58U C70G	4.71e-05 ± 3.6e-05
A14U G32A C50G U55A C67G	3.69e-05 ± 3e-05
A14U G62U C68A U69G	3.03e-05 ± 2.3e-05
A15U G32A C71A	4.9e-05 ± 2.8e-05
A15U U54G C58A	3.41e-05 ± 2.2e-05
C16A C58A	2.19e-05 ± 2.1e-05
C16G C58U	2.02e-05 ± 1.7e-05
C16G G40U U55A G60U	0.00103 ± 0.00088
C16U G51C C68G	3.73e-05 ± 2.1e-05
G29A A64G C67G	4.34e-05 ± 3.8e-05
G29C C67G	2.81e-05 ± 1.5e-05
G29U U45C U46G	4.34e-05 ± 2.7e-05
U30C A53C	1.99e-05 ± 1.5e-05
U30G A42G U65G C67U	4.36e-05 ± 2.7e-05
U30G C67U C71G	6.61e-05 ± 3.6e-05
U30G G37U G62C C70U C71G	4.11e-05 ± 2.8e-05
U31A A36U A42C	3.43e-05 ± 2.8e-05
U31A A42U	1.39e-05 ± 1.1e-05
U31C C67A C68G	1.8e-05 ± 1.7e-05

Part of the list above, set out differently:
Variant | self-cleavage kobs at 640 uM GlcN6P [s⁻¹]
A14C C16U G29C G60A C68U | 3.4e-05 ± 2.6e-05
A14U G32A C50G U55A C67G | 3.69e-05 ± 3e-05
A14U G62U C68A U69G | 3.03e-05 ± 2.3e-05
C16G C58U | 2.02e-05 ± 1.7e-05
G29A A64G C67G | 4.34e-05 ± 3.8e-05
G29U U45C U46G | 4.34e-05 ± 2.7e-05
U31A A42U | 1.39e-05 ± 1.1e-05

Remaining list, next part

Variant	self-cleavage kobs at 640 uM GlcN6P [s⁻¹]
G32A G51A U69A	4.22e-05 ± 3.2e-05
G32C A33G U49A C68A	4.36e-05 ± 2.5e-05
G32C A39G	2.33e-05 ± 1.8e-05
A33U G37U U69A	4.26e-05 ± 2.8e-05
C34A A36G G38U U69G	7.62e-05 ± 4.5e-05
C34A G38U C50G	4.38e-05 ± 2.9e-05
C34G G63U C68G	3.81e-05 ± 2.8e-05
A36G C50G	2.47e-05 ± 2.1e-05
A36U G51U U69G	9.49e-05 ± 5.6e-05
G37A A53G U55G U65G	2.88e-05 ± 2e-05
G38A U54G C68A	3.67e-05 ± 2.9e-05
G38U U49A C61U C70G	4.45e-05 ± 3.8e-05
A39G A64G U69A	4.41e-05 ± 2.8e-05
G40A C70U	0.000343 ± 0.00018
G41A U46A G66A	4.7e-05 ± 2.6e-05
G41A U47C	1.87e-05 ± 1.2e-05
A42G C58G	3.11e-05 ± 1.8e-05
A42U U45C U55A	4.1e-05 ± 2.2e-05
G43U C67U	2.21e-05 ± 1.8e-05
G44C U46A	4.12e-05 ± 2.9e-05
U45A A52U C67A	2.98e-05 ± 1.9e-05
U45C A48U	3.62e-05 ± 1.9e-05
U45G U69A	0.000174 ± 0.00011
U47A C68A	2.77e-05 ± 1.7e-05

Variant	self-cleavage kobs at 640 uM GlcN6P [s⁻¹]
U47G A48C	2.91e-05 ± 1.8e-05
U47G C50A A64C	2.5e-05 ± 1.8e-05
U47G C50U	2.26e-05 ± 1.7e-05
U47G U57C	3.07e-05 ± 2.7e-05
U49G C68G	3.13e-05 ± 1.6e-05
C50A A53G C58U U69C	4.32e-05 ± 2.3e-05
C50A C71G	2.55e-05 ± 2.2e-05
C50G A53U G63U U69A	5.07e-05 ± 3.1e-05
A52G A64C C70A	2.9e-05 ± 1.9e-05
A52G G59C A64U C68A	3.84e-05 ± 2.2e-05
A52G U57A C70A	3.37e-05 ± 2e-05
A53C A64C	3e-05 ± 2.1e-05
U54A U55A	0.0216 ± 0.011
U54G C58U C67U	2.44e-05 ± 2.1e-05
U57A C61G G62C A64G U65A G66U C67G U69C	2.85e-05 ± 2.5e-05
U57G C67A	4.59e-05 ± 2.4e-05
C58U U69C	1.32e-05 ± 1.3e-05
G59U C67U	1.54e-05 ± 1.1e-05
G62U U69A	2.71e-05 ± 1.7e-05
A64C U69G	2.13e-05 ± 1.6e-05
C68G C71U	1.3e-05 ± 1.3e-05

Variants of: B1
Test: self-cleavage kobs at 10000 uM GlcN6P; higher = faster cleavage; RNA array
Settings: with glucosamine-6-phosphate
In short: as §1

Variant	self-cleavage kobs at 10000 uM GlcN6P [s⁻¹]
G9A C11G A14G G62A C70G	4.35e-05 ± 2.2e-05
G13U C58U C67G	2e-05 ± 1.4e-05
A36G C50G	0.000601 ± 0.00059
G59U C67U	1.72e-05 ± 9e-06
A6G G29A	1.4e-05 ± 1.4e-05

Variants of: B1
Test: self-cleavage kobs at 2500 uM GlcN6P; higher = faster cleavage; RNA array
Settings: with glucosamine-6-phosphate
In short: as §1

Variant	self-cleavage kobs at 2500 uM GlcN6P [s⁻¹]
C10A C68G C71U	5.18e-05 ± 2.8e-05
C10U A14G C68G	3.6e-05 ± 1.9e-05
C11G C34G G35C G38U C70G	4.1e-05 ± 3.6e-05
G13U C58U C67G	3.33e-05 ± 2.2e-05
A14C A36G C68G	4.91e-05 ± 2.8e-05
A14U C50U C67G	5.18e-05 ± 3.5e-05
A14U G62U C68A U69G	3.52e-05 ± 2.9e-05
A15U G32A C71A	0.000174 ± 8.9e-05
C16U G51C C68G	2.93e-05 ± 2.8e-05
G32A G51A U69A	8.7e-05 ± 4.5e-05
C34G G63U C68G	1.99e-05 ± 1.8e-05
A36G C50G	2.89e-05 ± 2e-05
G38A U54G C68A	2.48e-05 ± 2.4e-05
C50A A53G C58U U69C	4.01e-05 ± 2e-05
C50A C71G	2.72e-05 ± 1.7e-05
U54A U55A	0.0595 ± 0.033
U57G C67A	3.12e-05 ± 2.9e-05
G62U U69A	2.44e-05 ± 1.9e-05
G32U U69G	6.66e-05 ± 5.8e-05
A33G C70G	2.69e-05 ± 1.7e-05
C34G C70A	2.48e-05 ± 1.8e-05
U45A A52U	0.000237 ± 0.00014
C50U U69G C70U	3.01e-05 ± 2.8e-05
G51U G60C C68A	3.39e-05 ± 2.3e-05
C61A C67U C71U	3.78e-05 ± 2e-05
G63A C70A	2.11e-05 ± 1.6e-05
U2A A3U C50A	2.95e-05 ± 2.2e-05
A6G G29A	3.17e-05 ± 2.5e-05
A6G U46C U47A	2.79e-05 ± 2.4e-05
A6G U46G	2.58e-05 ± 1.3e-05

Variants of: B1
Test: self-cleavage kobs at 160 uM GlcN6P; higher = faster cleavage; RNA array
Settings: with glucosamine-6-phosphate
In short: as §1

Variant	self-cleavage kobs at 160 uM GlcN6P [s⁻¹]
A14U G62U C68A U69G	3.9e-05 ± 2.7e-05
A36G C50G	2.17e-05 ± 1.9e-05
U49G C68G	2.34e-05 ± 2e-05
U57A C61G G62C A64G U65A G66U C67G U69C	3.76e-05 ± 1.9e-05
A6C U49G C50U U69C	2.46e-05 ± 2.2e-05
A6G U56G	1.61e-05 ± 1.5e-05
A6U C70A	1.59e-05 ± 1.3e-05
C8G G38U C68G	0.000361 ± 0.00026
C10A A14C C71A	3.12e-05 ± 2.9e-05
C11G C50A C58U	2.75e-05 ± 1.9e-05
A12G C70A	2.98e-05 ± 1.6e-05
A12U C16A	0.000322 ± 0.00017
G13U G29U	2.1e-05 ± 1.1e-05
A14G G59A	1.91e-05 ± 1.2e-05
A15C A52G	2.31e-05 ± 1.4e-05
A15C U47C C71U	4.42e-05 ± 3e-05
C16A C50A U69C	2.79e-05 ± 2.3e-05
U30A U45G	4.01e-05 ± 2.2e-05
U30C U47A	2.17e-05 ± 1.2e-05
U30G C70A	1.88e-05 ± 1.1e-05
U30G U46A	2.99e-05 ± 1.7e-05
G32A C68G	2.1e-05 ± 1.6e-05
G32A C68U	1.77e-05 ± 1.3e-05
G32A U69G	0.000229 ± 0.00013

Variant	self-cleavage kobs at 160 uM GlcN6P [s⁻¹]
G32U U54A	2.96e-05 ± 1.5e-05
G32U U54C	1.78e-05 ± 9.1e-06
G32U U69G	5.39e-05 ± 2.9e-05
A33G C70G	2.63e-05 ± 1.9e-05
C34G C70A	2.05e-05 ± 1.9e-05
A42C G66A	2.64e-05 ± 2.4e-05
A42G U45C C70U	3e-05 ± 2.3e-05
U45A A52U	2.39e-05 ± 2.2e-05
U46C U69G	3.93e-05 ± 2.3e-05
A48G C70U	2.32e-05 ± 1.7e-05
C50G A52G G60U C71U	3.15e-05 ± 1.9e-05
C50U U69G C70U	4.46e-05 ± 2.7e-05
G51U G60C C68A	2.54e-05 ± 2.3e-05
A52C C68A	2.08e-05 ± 1.5e-05
A52C U54G A64C C70U	2.42e-05 ± 1.8e-05
A52U C67G	1.54e-05 ± 1e-05
A52U C67U	1.92e-05 ± 9.9e-06
A53U G60A C70A	2.34e-05 ± 2.3e-05
U56C C70U	1.58e-05 ± 1e-05
C58G C68A U69G	4.58e-05 ± 3.8e-05
C61A C67U C71U	2.42e-05 ± 2.1e-05
G63A C70A	2.08e-05 ± 1.7e-05
A64G C67G	2.73e-05 ± 1.7e-05

Reference: the supplement of paper PMC7125110
